Data: PMC6856647
Results are given in words; binding and its absence hold for the method and conditions named. In cells and extracts the contact can be indirect.

Molecular target: T1, ΔNp63α (UniProt Q9H3D4)
T1 sequence: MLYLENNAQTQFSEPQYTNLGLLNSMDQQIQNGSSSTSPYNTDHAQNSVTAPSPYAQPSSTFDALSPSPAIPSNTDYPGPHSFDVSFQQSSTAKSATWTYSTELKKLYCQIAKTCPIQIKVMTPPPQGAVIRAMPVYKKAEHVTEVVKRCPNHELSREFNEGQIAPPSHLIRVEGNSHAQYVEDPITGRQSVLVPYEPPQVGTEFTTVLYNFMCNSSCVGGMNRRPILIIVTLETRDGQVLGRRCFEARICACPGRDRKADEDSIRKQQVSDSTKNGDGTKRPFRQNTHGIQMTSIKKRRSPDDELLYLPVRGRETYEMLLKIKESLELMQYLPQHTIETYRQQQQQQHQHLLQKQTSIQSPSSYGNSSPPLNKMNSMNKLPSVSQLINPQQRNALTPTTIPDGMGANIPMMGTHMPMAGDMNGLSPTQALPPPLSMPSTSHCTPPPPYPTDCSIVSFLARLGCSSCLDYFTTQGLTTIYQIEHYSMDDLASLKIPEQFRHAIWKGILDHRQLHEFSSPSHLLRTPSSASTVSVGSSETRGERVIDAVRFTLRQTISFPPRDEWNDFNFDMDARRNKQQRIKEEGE
Test: co-IP; HCT116-p53(-/-) cells co-transfected with the indicated plasmids, MG132 10 uM for 4 h; lysed in RIPA buffer with 10% glycerol; immunoprecipitated with anti-p63 or anti-p53 (control); western blot

B1: TRIM8 (protein, UniProt Q9BZR9 1-551)
chain: MAENWKNCFEEELICPICLHVFVEPVQLPCKHNFCRGCIGEAWAKDSGLVRCPECNQAYNQKPGLEKNLKLTNIVEKFNALHVEKPPAALHCVFCRRGPPLPAQKVCLRCEAPCCQSHVQTHLQQPSTARGHLLVEADDVRAWSCPQHNAYRLYHCEAEQVAVCQYCCYYSGAHQGHSVCDVEIRRNEIRKMLMKQQDRLEEREQDIEDQLYKLESDKRLVEEKVNQLKEEVRLQYEKLHQLLDEDLRQTVEVLDKAQAKFCSENAAQALHLGERMQEAKKLLGSLQLLFDKTEDVSFMKNTKSVKILMDRTQTCTSSSLSPTKIGHLNSKLFLNEVAKKEKQLRKMLEGPFSTPVPFLQSVPLYPCGVSSSGAEKRKHSTAFPEASFLETSSGPVGGQYGAAGTASGEGQSGQPLGPCSSTQHLVALPGGAQPVHSSPVFPPSQYPNGSAAQQPMLPQYGGRKILVCSVDNCYCSSVANHGGHQPYPRSGHFPWTVPSQEYSHPLPPTPSVPQSLPSLAVRDWLDASQQPGHQDFYRVYGQPSTKHYVTS
binding: no binding
